Results: the supplement of paper PMC11732987, “Enantioselective OTUD7B fragment discovery through chemoproteomics screening and high-throughput optimisation” (Communications Chemistry, 2025)
Some of the results follow. The data scatter; read single values as rough.

Chains of the proteins cited; added tags and fusions are not shown. Lines headed by an entry give the natural chain unless they say otherwise; changes in a name come on top. Residues count along the entry.
UniProt Q14008, 1103-1125: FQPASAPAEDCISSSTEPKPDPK
UniProt Q8NFW8: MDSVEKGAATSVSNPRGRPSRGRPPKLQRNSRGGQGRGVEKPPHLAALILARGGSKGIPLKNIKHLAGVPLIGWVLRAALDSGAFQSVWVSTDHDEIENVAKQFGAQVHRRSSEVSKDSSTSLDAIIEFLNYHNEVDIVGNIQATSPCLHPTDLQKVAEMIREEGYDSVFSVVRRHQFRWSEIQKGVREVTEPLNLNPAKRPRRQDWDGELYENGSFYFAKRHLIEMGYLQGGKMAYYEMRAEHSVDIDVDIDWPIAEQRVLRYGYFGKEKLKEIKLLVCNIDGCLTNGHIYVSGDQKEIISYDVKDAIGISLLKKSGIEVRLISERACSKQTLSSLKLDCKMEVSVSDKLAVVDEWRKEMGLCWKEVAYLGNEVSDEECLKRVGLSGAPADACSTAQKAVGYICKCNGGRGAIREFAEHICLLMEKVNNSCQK
UniProt P53675: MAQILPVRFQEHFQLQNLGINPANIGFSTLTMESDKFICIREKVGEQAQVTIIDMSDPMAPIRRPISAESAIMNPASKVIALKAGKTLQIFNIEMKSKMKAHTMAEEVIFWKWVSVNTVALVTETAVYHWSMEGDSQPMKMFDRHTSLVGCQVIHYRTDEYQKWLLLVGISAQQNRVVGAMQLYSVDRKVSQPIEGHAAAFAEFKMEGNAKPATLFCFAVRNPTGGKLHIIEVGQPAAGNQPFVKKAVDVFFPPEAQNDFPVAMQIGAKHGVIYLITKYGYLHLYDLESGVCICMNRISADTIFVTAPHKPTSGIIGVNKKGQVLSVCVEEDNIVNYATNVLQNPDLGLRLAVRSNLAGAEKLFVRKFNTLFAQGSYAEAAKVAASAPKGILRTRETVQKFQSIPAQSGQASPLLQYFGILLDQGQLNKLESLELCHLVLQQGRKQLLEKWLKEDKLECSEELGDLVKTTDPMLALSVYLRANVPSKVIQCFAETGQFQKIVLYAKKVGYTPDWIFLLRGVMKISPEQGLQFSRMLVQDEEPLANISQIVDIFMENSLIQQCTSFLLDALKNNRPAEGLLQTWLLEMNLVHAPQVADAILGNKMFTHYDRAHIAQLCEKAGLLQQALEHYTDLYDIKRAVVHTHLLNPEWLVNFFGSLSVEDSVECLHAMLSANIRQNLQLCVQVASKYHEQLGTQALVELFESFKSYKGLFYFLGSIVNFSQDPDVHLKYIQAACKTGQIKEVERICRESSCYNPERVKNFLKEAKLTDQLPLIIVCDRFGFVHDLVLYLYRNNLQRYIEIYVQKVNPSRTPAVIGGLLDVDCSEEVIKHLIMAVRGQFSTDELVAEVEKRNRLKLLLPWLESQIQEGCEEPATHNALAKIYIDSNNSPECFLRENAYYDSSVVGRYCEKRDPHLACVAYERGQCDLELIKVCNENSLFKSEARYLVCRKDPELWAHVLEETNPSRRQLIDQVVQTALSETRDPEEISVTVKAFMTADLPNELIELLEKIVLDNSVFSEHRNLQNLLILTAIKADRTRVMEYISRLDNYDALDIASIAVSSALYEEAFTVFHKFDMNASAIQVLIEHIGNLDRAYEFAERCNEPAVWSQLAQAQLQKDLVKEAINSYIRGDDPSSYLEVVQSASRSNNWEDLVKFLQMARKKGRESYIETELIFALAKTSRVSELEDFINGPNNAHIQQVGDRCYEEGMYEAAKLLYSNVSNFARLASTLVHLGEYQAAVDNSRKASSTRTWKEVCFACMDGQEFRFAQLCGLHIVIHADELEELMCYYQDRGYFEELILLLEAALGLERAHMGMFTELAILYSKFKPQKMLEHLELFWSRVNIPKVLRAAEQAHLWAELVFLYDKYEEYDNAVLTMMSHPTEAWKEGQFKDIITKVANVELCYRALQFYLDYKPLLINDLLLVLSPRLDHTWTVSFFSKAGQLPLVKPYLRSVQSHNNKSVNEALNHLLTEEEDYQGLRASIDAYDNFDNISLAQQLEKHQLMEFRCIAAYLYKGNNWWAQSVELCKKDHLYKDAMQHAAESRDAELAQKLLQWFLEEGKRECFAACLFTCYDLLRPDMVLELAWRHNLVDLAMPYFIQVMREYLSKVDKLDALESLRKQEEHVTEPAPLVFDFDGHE
UniProt P26374, 468-490: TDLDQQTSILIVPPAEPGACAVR
UniProt Q9H9E3: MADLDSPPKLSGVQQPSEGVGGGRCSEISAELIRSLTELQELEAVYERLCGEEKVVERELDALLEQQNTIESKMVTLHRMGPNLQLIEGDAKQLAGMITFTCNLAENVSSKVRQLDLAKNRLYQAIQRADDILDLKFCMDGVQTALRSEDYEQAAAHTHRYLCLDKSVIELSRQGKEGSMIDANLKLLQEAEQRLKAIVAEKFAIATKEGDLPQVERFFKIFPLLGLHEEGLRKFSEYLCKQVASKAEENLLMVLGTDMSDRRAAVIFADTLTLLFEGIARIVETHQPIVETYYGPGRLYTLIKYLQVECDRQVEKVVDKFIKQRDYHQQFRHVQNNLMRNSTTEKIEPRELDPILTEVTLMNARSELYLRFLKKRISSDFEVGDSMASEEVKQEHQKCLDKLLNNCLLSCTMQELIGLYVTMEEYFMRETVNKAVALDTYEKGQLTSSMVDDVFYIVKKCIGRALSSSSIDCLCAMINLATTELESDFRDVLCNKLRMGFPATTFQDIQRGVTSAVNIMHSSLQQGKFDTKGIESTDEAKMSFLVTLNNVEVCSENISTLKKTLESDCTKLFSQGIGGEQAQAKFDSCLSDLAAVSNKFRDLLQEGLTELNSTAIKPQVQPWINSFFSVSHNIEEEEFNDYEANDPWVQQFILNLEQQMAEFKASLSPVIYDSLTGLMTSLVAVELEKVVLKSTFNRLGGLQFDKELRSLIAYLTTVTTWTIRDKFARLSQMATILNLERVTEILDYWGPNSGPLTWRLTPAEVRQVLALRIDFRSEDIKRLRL
UniProt Q8WTW3: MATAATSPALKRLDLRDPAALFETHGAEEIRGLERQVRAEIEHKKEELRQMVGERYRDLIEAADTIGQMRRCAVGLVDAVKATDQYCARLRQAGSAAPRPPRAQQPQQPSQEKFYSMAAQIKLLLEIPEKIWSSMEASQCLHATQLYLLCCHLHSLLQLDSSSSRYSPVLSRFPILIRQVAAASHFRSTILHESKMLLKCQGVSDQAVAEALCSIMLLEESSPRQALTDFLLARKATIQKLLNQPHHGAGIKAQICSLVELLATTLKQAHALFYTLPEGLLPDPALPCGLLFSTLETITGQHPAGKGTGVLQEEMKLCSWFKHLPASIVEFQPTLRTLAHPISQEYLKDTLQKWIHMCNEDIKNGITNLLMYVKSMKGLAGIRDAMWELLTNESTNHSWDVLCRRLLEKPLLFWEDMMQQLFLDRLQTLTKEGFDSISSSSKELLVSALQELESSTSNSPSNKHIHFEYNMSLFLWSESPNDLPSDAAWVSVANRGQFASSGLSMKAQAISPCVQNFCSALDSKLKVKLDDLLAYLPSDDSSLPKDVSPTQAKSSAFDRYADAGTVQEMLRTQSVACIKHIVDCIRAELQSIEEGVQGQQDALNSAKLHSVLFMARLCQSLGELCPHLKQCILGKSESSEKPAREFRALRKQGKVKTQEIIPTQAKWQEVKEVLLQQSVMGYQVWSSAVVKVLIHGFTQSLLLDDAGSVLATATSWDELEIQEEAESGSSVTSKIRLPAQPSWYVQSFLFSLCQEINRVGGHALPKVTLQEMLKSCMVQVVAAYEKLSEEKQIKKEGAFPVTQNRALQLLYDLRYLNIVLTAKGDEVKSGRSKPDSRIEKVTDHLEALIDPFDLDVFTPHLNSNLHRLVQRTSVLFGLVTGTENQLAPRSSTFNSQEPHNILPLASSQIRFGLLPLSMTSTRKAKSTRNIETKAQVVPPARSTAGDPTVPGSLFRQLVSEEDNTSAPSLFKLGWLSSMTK
UniProt Q9P000, 153-175: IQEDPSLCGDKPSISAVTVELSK
UniProt Q92989, 329-351: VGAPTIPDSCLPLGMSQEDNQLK
UniProt Q53SF7: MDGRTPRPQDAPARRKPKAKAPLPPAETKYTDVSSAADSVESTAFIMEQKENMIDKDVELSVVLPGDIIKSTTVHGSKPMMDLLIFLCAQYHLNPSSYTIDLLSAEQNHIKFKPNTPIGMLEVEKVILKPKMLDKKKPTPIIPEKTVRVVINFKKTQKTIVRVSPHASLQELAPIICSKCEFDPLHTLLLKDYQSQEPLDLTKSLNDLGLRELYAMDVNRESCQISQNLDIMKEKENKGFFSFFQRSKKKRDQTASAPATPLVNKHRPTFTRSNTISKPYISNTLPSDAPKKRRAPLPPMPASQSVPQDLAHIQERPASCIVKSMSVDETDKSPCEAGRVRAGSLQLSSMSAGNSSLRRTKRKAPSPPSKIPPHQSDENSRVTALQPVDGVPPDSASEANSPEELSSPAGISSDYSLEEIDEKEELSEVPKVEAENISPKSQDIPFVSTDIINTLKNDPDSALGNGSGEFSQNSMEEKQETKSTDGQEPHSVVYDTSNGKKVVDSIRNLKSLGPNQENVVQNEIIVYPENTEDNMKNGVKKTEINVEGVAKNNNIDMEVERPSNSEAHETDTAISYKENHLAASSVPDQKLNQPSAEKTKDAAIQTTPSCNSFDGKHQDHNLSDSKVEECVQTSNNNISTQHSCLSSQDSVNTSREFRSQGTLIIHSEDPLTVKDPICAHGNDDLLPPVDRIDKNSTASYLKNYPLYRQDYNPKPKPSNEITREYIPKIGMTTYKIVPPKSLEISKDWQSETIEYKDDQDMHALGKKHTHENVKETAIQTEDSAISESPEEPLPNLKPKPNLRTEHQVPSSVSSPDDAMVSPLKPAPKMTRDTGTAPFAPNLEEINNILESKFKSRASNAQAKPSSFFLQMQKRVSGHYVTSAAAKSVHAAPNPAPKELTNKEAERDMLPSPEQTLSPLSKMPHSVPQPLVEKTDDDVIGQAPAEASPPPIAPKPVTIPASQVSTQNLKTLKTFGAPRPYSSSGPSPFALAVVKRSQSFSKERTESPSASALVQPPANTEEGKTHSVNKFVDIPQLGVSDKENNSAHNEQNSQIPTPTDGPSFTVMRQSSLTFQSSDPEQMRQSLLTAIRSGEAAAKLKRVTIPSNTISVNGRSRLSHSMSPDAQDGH
UniProt O95639, whole entry, looked up: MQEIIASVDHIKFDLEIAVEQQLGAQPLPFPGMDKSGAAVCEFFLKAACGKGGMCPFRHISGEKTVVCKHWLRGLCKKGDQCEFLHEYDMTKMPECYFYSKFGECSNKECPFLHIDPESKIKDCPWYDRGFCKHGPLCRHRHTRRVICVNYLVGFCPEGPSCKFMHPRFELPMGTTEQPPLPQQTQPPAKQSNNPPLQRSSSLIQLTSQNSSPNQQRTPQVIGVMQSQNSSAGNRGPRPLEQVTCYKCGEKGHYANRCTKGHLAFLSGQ
UniProt Q8NE01, 609-631: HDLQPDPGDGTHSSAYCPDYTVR
UniProt P53621: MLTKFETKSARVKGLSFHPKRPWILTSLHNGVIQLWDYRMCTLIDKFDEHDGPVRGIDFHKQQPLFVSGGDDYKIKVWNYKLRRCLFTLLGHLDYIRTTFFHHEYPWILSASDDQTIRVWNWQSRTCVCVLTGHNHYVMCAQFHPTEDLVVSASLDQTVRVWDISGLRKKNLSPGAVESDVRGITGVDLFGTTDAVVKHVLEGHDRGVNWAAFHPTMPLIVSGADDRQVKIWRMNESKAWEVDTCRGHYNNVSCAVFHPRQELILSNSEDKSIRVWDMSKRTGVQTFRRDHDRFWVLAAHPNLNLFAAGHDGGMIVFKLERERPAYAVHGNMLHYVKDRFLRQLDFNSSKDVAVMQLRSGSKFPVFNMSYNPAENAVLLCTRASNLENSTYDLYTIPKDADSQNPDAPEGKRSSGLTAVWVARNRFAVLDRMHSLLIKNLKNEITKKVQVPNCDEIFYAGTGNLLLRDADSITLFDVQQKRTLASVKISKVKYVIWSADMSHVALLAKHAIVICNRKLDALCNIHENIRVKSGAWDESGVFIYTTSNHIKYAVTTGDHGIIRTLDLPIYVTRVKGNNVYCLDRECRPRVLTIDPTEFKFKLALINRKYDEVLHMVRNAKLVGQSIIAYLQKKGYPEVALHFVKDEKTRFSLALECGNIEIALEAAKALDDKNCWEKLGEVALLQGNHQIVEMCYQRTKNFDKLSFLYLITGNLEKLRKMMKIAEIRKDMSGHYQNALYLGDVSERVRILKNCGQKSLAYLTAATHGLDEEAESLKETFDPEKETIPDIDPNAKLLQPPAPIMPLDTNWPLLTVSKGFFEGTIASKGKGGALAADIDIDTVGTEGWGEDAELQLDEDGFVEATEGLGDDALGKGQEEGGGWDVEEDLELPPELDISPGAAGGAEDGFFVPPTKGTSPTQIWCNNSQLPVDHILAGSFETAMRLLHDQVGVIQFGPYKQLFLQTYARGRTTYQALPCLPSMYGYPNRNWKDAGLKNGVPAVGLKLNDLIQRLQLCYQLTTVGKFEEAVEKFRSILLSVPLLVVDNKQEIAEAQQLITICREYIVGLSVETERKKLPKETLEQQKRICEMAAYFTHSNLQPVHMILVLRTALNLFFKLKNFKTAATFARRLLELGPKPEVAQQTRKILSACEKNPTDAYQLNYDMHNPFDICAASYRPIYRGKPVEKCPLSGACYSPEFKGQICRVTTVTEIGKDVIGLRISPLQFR
UniProt O76071, 223-242: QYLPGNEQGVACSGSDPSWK

Experiments:
[1] = compound: ClCC(=O)N[C@@H]1CCCc2ccccc12; assay: log2 mean competition ratio of IA-DTB cysteine labelling (DMSO/compound) (log2 ratio); higher = stronger cysteine engagement by compound; conditions: treatment time: 4 h, cell line lysate: HEK293T
Protocol: (§1)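 IA-DTB competitive cysteine chemoproteomics in HEK293T RIPA lysate. Lysates were treated with compound 29 or 30 at 50 or 200 µM for 4 h, then IA-DTB (500 µM, 1 h), trypsin-digested, NeutrAvidin-enriched and analysed by diaPASEF. Competition ratio = intensity DMSO / intensity compound (n=4 treated, n=64 DMSO); binding: mean log2 CR ≥ 1 and p ≤ 0.05 plus QC filters. Target is the cysteine site.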

[2] = compound: ClCC(=O)N[C@H]1CCCc2ccccc12; assay: as above; conditions: treatment time: 4 h, cell line lysate: HEK293T
Protocol: as §1

Target	log2 mean competition ratio ([1]; 50 µM)	log2 mean competition ratio ([1]; 200 µM)	log2 mean competition ratio ([2]; 50 µM)	log2 mean competition ratio ([2]; 200 µM)
CKAP5 C1317 (UniProt Q14008)	0.113	0.0451	-0.00407	0.146
CMIP C623 (UniProt Q8IY22)	-0.122	-0.172	-0.165	0.0807
COPS3 C383 (UniProt Q9UNS2)	-0.13	0.116	–	–
CORO7 C34 (UniProt P57737)	-0.14	0.33	-0.029	0.309
CMAS C364 (UniProt Q8NFW8)	0.177	0.0332	–	–
CLTCL1 C824 (UniProt P53675)	-0.22	0.0787	-0.105	0.536
CHML C487 (UniProt P26374)	-0.349	-0.0156	0.123	-0.221
CNBP C158 (UniProt P62633)	0.277	-0.266	–	–
COQ3 C155 (UniProt Q9NZJ6)	-0.167	0.576	–	–
COG4 C240 (UniProt Q9H9E3)	0.256	-0.0883	–	–
CHPT1 C386 (UniProt Q8WUD6)	0.258	-0.297	–	–
CNTNAP1 C1250	0.322	-0.302	–	-0.316
COG1 C577 (UniProt Q8WTW3)	-0.0424	-0.227	–	–
COPS2 C179 (UniProt P61201)	-0.534	0.0512	–	–
COMMD9 C160 (UniProt Q9P000)	-0.168	-0.267	–	–
CHUK C406 (UniProt O15111)	0.421	-0.243	–	–
CNOT1 C890 (UniProt A5YKK6)	0.0211	-0.231	0.37	-0.152
CLIC1 C24 (UniProt O00299)	-0.0675	0.183	–	–
CLNS1A C73 (UniProt P54105)	0.305	0.214	-0.0745	-0.057
CIP2A C615 (UniProt Q8TCG1)	-0.0763	0.11	–	–
CHTF18 C373 (UniProt Q8WVB6)	-0.0221	-0.0578	–	–
COG8 C225 (UniProt Q96MW5)	-0.152	-0.197	–	–
COPB1 C390 (UniProt P53618)	0.097	-0.295	–	–
CLMN C508	-0.516	-0.615	–	-0.362
CORO7 C691 (UniProt P57737)	-0.27	-0.0407	–	–
CIP2A C472 (UniProt Q8TCG1)	0.132	0.0657	–	–

Target	log2 mean competition ratio ([1]; 50 µM)	log2 mean competition ratio ([1]; 200 µM)	log2 mean competition ratio ([2]; 50 µM)	log2 mean competition ratio ([2]; 200 µM)
CKAP2L C44 (UniProt Q8IYA6)	0.00668	-0.136	–	–
COG6 C234 (UniProt Q9Y2V7)	-0.0491	0.352	-0.126	0.335
CHERP C69 (UniProt Q8IWX8)	0.191	-0.0123	–	–
CNP C111 (UniProt P09543)	-0.126	0.0906	–	–
CPVL C320 (UniProt Q9H3G5)	0.0747	-0.113	–	-0.0929
CLASP1 C173 (UniProt Q7Z460)	0.465	0.123	–	–
CLTC C491 (UniProt Q00610)	-0.244	-0.453	-0.0631	-0.402
CLTCL1 C1404 (UniProt P53675)	-0.223	-0.168	-0.227	-0.0253
CPNE3 C5 (UniProt O75131)	0.139	-0.21	–	–
CIC C336	-0.0383	-0.239	–	–
COQ8B C415 (UniProt Q96D53)	-0.161	0.107	–	–
CRACR2A C291 (UniProt Q9BSW2)	0.246	-0.222	0.113	-0.399
CHMP5 C20 (UniProt Q9NZZ3)	0.171	0.297	0.328	0.236
COG1 C584 (UniProt Q8WTW3)	-0.234	-0.286	0.272	-0.073
CLN5 C231 (UniProt O75503)	1.06	3.83	-0.0359	0.135
COG5 C173 (UniProt Q9UP83)	0.221	-0.33	-0.117	-0.263
CNN3 C59 (UniProt Q15417)	-0.0538	-0.442	-0.0445	-0.303
CLPX C538 (UniProt O76031)	0.0392	-0.0715	-0.0639	-0.155
CLUH C7	-0.186	-0.0394	-0.448	0.178
CPSF1 C1020 (UniProt Q10570)	0.499	-0.303	0.245	-0.602
CNPY3 C194 (UniProt Q9BT09)	0.0779	0.213	-0.209	0.0444
CLASP1 C453 (UniProt Q7Z460)	0.511	0.235	0.452	0.201
COPB1 C284 (UniProt P53618)	-0.0984	-0.229	-0.261	-0.393
CLASP2 C976 (UniProt O75122)	-0.161	-0.284	0.156	-0.352
CINP C120 (UniProt Q9BW66)	-0.241	-0.19	-0.755	0.0552
CLUH C200	-0.0484	-0.0353	-0.452	-0.245

Target	log2 mean competition ratio ([1]; 50 µM)	log2 mean competition ratio ([1]; 200 µM)	log2 mean competition ratio ([2]; 50 µM)	log2 mean competition ratio ([2]; 200 µM)
CNN2 C215 (UniProt Q99439)	0.199	0.0957	0.357	0.272
CHD8 C1913 (UniProt Q9HCK8)	0.0407	-0.0399	-0.357	-0.0675
CNST C317 (UniProt Q6PJW8)	-0.136	0.0866	-0.0234	0.11
CISD3 C109 (UniProt P0C7P0)	0.365	0.0397	0.361	-0.0406
CLP1 C338 (UniProt Q92989)	-0.223	0.208	-0.251	-0.0701
COBLL1 C335 (UniProt Q53SF7)	0.0179	-0.0983	-0.0809	-0.0237
CNOT7 C67	0.00655	-0.182	0.0942	-0.0912
CLTC C753 (UniProt Q00610)	-0.13	0.0195	-0.16	0.1
CPSF1 C1102 (UniProt Q10570)	-0.0715	0.114	-0.23	-0.054
COG3 C564 (UniProt Q96JB2)	0.279	-0.114	0.22	-0.164
CPSF4 C110 (UniProt O95639)	-0.0944	-0.312	-0.535	-0.351
CMTR1 C504 (UniProt Q8N1G2)	-0.27	-0.0239	-0.314	-0.117
CNNM3 C625 (UniProt Q8NE01)	-0.226	-0.188	0.146	-0.256
CLTCL1 C778 (UniProt P53675)	-0.00557	-0.693	-0.048	-0.605
CRACD C1228	0.00567	-0.017	-0.284	0.14
COMTD1 C45 (UniProt Q86VU5)	0.411	0.266	0.614	0.274
CRACR2A C494 (UniProt Q9BSW2)	-0.159	-0.206	-0.317	0.0122
CPSF4 C124 (UniProt O95639)	0.199	0.518	0.389	0.437
COG1 C87 (UniProt Q8WTW3)	0.00713	0.201	0.0252	0.195
CNPY3 C206 (UniProt Q9BT09)	0.368	0.509	0.395	0.543
COPG1 C44 (UniProt Q9Y678)	0.421	-0.322	0.512	-0.41
CLCC1 C254 (UniProt Q96S66)	-0.062	0.169	0.0607	0.161
CMTR1 C9 (UniProt Q8N1G2)	-0.144	-0.207	-0.0477	-0.174
COG3 C363 (UniProt Q96JB2)	-0.0487	-0.245	0.711	-0.273
CHD9 C881 (UniProt Q3L8U1)	-0.0202	0.292	0.0429	0.384
CLSTN3 C66 (UniProt Q9BQT9)	-0.114	0.00261	-0.27	-0.0208

Target	log2 mean competition ratio ([1]; 50 µM)	log2 mean competition ratio ([1]; 200 µM)	log2 mean competition ratio ([2]; 50 µM)	log2 mean competition ratio ([2]; 200 µM)
COG4 C569 (UniProt Q9H9E3)	-0.135	0.205	-0.0744	0.242
CPLANE1 C1074	-0.185	0.119	-0.261	-0.0328
CPSF4 C105 (UniProt O95639)	-0.173	-0.0774	-0.0946	-0.139
CNTRL C1375 (UniProt Q7Z7A1)	-0.369	0.426	-0.577	0.0926
CKAP5 C1113 (UniProt Q14008)	-0.0994	0.017	-0.353	-0.209
CKAP5 C1946 (UniProt Q14008)	-0.0614	0.0367	0.0172	0.0849
CPT1A C96 (UniProt P50416)	0.0251	0.0069	-0.0475	0.105
CNBD2 C535	-0.181	0.13	-0.469	0.177
CHEK1 C48 (UniProt O14757)	-0.11	-0.00715	-0.109	-0.0551
CLMN C438	-0.0539	0.531	0.0316	0.365
CNNM3 C376 (UniProt Q8NE01)	-0.344	-0.191	-0.196	-0.106
CPD C195 (UniProt O75976)	-0.225	-0.0832	0.174	0.205
CHEK2 C284 (UniProt O96017)	-0.0266	-0.242	-0.0294	-0.311
CPSF4 C82 (UniProt O95639)	-0.172	0.559	-0.796	0.0682
COBLL1 C223 (UniProt Q53SF7)	-0.0585	-0.091	-0.293	-0.133
COPA C580 (UniProt P53621)	0.169	-0.0252	0.408	0.00664
CIAO1 C234 (UniProt O76071)	-0.597	0.257	0.0818	0.176
CMAS C380 (UniProt Q8NFW8)	0.0781	-0.166	0.71	0.0574
CHST14 C159 (UniProt Q8NCH0)	0.603	1.26	0.414	0.88
COG7 C505 (UniProt P83436)	-0.0431	-0.153	0.587	0.144
CNEP1R1 C110 (UniProt Q8N9A8)	-0.348	-0.148	-0.0646	-0.0929
COPA C254 (UniProt P53621)	0.366	-0.149	0.0853	-0.328
COQ8A C406 (UniProt Q8NI60)	-0.0329	0.00814	-0.142	-0.00554
CMTR1 C593 (UniProt Q8N1G2)	-0.0471	-0.176	-0.215	-0.165
CPSF3 C358 (UniProt Q9UKF6)	-0.248	-0.00851	0.109	-0.167
CHTF18 C542 (UniProt Q8WVB6)	-0.0573	-0.075	-0.402	0.00482

A second format for some results above.
Target | log2 mean competition ratio ([1]; 50 µM) | log2 mean competition ratio ([1]; 200 µM) | log2 mean competition ratio ([2]; 50 µM) | log2 mean competition ratio ([2]; 200 µM)
COG4 C569 (UniProt Q9H9E3) | -0.135 | 0.205 | -0.0744 | 0.242
CPSF4 C105 (UniProt O95639) | -0.173 | -0.0774 | -0.0946 | -0.139
CNTRL C1375 (UniProt Q7Z7A1) | -0.369 | 0.426 | -0.577 | 0.0926
CKAP5 C1113 (UniProt Q14008) | -0.0994 | 0.017 | -0.353 | -0.209
CKAP5 C1946 (UniProt Q14008) | -0.0614 | 0.0367 | 0.0172 | 0.0849
CPT1A C96 (UniProt P50416) | 0.0251 | 0.0069 | -0.0475 | 0.105
CNBD2 C535 | -0.181 | 0.13 | -0.469 | 0.177
CHEK1 C48 (UniProt O14757) | -0.11 | -0.00715 | -0.109 | -0.0551
CLMN C438 | -0.0539 | 0.531 | 0.0316 | 0.365
CNNM3 C376 (UniProt Q8NE01) | -0.344 | -0.191 | -0.196 | -0.106
CPD C195 (UniProt O75976) | -0.225 | -0.0832 | 0.174 | 0.205
CHEK2 C284 (UniProt O96017) | -0.0266 | -0.242 | -0.0294 | -0.311
CPSF4 C82 (UniProt O95639) | -0.172 | 0.559 | -0.796 | 0.0682
COBLL1 C223 (UniProt Q53SF7) | -0.0585 | -0.091 | -0.293 | -0.133
COPA C580 (UniProt P53621) | 0.169 | -0.0252 | 0.408 | 0.00664
CIAO1 C234 (UniProt O76071) | -0.597 | 0.257 | 0.0818 | 0.176
CMAS C380 (UniProt Q8NFW8) | 0.0781 | -0.166 | 0.71 | 0.0574
CHST14 C159 (UniProt Q8NCH0) | 0.603 | 1.26 | 0.414 | 0.88
COG7 C505 (UniProt P83436) | -0.0431 | -0.153 | 0.587 | 0.144
CNEP1R1 C110 (UniProt Q8N9A8) | -0.348 | -0.148 | -0.0646 | -0.0929
COQ8A C406 (UniProt Q8NI60) | -0.0329 | 0.00814 | -0.142 | -0.00554
CMTR1 C593 (UniProt Q8N1G2) | -0.0471 | -0.176 | -0.215 | -0.165
CHTF18 C542 (UniProt Q8WVB6) | -0.0573 | -0.075 | -0.402 | 0.00482
